Measurements from article PMC11869656.
No constants are given. Whether binding was seen depends on the method and setting. In cells and extracts the contact can be indirect. Some results given as binding are weak or reduced against the parent protein; the word gives no strength.

By UniProt entry, the sequences of proteins in these tests, tags left out.
UniProt I3LHS8: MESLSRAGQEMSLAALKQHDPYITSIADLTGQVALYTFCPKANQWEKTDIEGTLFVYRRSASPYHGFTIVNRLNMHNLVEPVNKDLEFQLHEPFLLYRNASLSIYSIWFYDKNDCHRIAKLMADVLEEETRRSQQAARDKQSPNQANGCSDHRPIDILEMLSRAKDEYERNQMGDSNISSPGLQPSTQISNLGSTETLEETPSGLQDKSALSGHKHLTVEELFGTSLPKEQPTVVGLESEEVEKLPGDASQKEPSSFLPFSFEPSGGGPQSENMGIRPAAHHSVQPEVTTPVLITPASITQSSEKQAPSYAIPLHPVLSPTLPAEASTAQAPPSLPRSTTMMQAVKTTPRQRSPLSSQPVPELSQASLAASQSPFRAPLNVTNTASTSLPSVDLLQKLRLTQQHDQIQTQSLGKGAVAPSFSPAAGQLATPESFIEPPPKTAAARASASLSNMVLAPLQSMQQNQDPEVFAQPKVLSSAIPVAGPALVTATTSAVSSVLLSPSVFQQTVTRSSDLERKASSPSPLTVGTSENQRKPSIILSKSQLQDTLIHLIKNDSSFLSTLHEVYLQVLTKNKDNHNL
UniProt Q7YS99: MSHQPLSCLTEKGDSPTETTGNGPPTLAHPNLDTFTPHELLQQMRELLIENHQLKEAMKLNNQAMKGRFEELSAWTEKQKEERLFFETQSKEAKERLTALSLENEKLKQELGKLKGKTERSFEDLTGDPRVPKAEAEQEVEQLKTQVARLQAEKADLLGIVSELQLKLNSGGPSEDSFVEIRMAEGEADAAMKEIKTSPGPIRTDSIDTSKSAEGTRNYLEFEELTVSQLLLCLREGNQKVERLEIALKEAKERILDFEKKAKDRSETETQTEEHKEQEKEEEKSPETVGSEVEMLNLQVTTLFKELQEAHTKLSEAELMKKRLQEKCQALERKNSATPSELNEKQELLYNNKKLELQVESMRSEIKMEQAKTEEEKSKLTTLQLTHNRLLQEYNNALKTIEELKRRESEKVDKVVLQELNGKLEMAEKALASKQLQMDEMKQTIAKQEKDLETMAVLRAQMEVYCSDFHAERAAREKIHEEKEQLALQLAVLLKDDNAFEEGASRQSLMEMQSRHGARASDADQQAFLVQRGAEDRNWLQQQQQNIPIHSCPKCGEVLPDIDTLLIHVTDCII

Target: myc-tagged pig mRNA decapping enzyme 1A (DCP1A), full length (pig) (UniProt I3LHS8)
Experiment: co-IP; BHK-21 cells cotransfected with myc-tagged DCP1A (or its truncations) and GFP-tagged SVV proteins or HA-tagged autophagy receptors; lysed at 24 hpt; anti-myc magnetic beads overnight; western blotting with anti-myc, anti-HA, anti-GFP

HA-tagged OPTN (optineurin) (from UniProt Q7YS99 1-574)
binding: binds
